# Results from patent US20130096104A1, “IMIDAZOPYRIDINE COMPOUNDS, COMPOSITIONS AND METHODS OF USE” (GENENTECH, INC., priority 2010, published 2013).
# Some results were stated once for a whole list of compounds, not compound by compound.
# Target: T1, TYK2 kinase domain (Homo sapiens, UniProt P29597)
# T1 construct: The activity of the isolated JAK1, JAK2 or TYK2 kinase domain was measured
# T1 sequence (P29597 897-1176 limits assumed): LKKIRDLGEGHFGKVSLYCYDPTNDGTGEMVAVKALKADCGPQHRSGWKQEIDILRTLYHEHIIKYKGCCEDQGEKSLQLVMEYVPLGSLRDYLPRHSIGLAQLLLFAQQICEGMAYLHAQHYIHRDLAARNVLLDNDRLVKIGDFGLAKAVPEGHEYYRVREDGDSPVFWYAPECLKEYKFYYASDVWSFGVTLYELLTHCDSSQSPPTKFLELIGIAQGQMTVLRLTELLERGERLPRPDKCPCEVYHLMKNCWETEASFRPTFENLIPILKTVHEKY
# Assay: TYK2 inhibition assay (Example A, Caliper LabChip peptide phosphorylation)
# Format: biochemical
# Settings: tested in the above assays; less than about
row,Compound,IC50
1,"Cc1cc(Nc2ncc(F)c3[nH]c(-c4c(F)cccc4Cl)nc23)nc(C)n1 [Example 458, [2-(2-Chloro-6-fluoro-phenyl)-7-fluoro-1H-imidazo[4,5-c]pyridin-4-yl]-(2,6-dimethyl-pyrimidin-4-yl)-amine]",< 5 µM
2,"Cc1cc(Nc2ncc(Br)c3[nH]c(-c4c(Cl)cccc4Cl)nc23)ncn1 [Example 459, [7-Bromo-2-(2,6-dichloro-phenyl)-1H-imidazo[4,5-c]pyridin-4-yl]-(6-methyl-pyrimidin-4-yl)-amine]",< 5 µM
3,"Nc1cc(Nc2ncc(Br)c3[nH]c(-c4c(Cl)cccc4Cl)nc23)ncn1 [Example 460, N-[7-Bromo-2-(2,6-dichloro-phenyl)-1H-imidazo[4,5-c]pyridin-4-yl]-pyrimidine-4,6-diamine]",< 5 µM
4,"Cc1cc(Nc2ncc(C#N)c3[nH]c(-c4c(Cl)cccc4Cl)nc23)ncn1 [Example 461, 2-(2,6-Dichloro-phenyl)-4-(6-methyl-pyrimidin-4-ylamino)-1H-imidazo[4,5-c]-pyridine-7-carbonitrile]",< 5 µM
5,"Cn1ccc(Nc2nccc3nc(-c4c(Cl)cccc4Cl)[nH]c23)nc1=O [Example 462, 4-[2-(2,6-Dichloro-phenyl)-3H-imidazo[4,5-c]pyridin-4-ylamino]-1-methyl-1H-pyrimidin-2-one]",< 5 µM
6,"Cc1cc(Nc2ncc(F)c3[nH]c(-c4c(F)cc(N)cc4Cl)nc23)ncn1 [Example 463, [2-(4-Amino-2-chloro-6-fluoro-phenyl)-7-fluoro-1H-imidazo[4,5-c]-pyridin-4-yl]-(6-methyl-pyrimidin-4-yl)-amine]",< 5 µM
7,"Nc1cc(Nc2ncc(Cl)c3[nH]c(-c4c(Cl)cccc4Cl)nc23)ncn1 [Example 464, N-[7-Chloro-2-(2,6-dichloro-phenyl)-1H-imidazo[4,5-c]pyridin-4-yl]-pyrimidine-4,6-diamine]",< 5 µM
8,"Cc1cc(Nc2ncc(C(N)=O)c3[nH]c(-c4c(Cl)cccc4Cl)nc23)ncn1 [Example 465, 2-(2,6-Dichloro-phenyl)-4-(6-methyl-pyrimidin-4-ylamino)-1H-imidazo[4,5-c]-pyridine-7-carboxylic acid amide]",< 5 µM
9,"Cn1c(-c2c(Cl)cccc2Cl)nc2c(Nc3cncs3)nccc21 [Example 466, [2-(2,6-Dichloro-phenyl)-1-methyl-1H-imidazo[4,5-c]pyridin-4-yl]-thiazol-5-yl-amine]",< 5 µM
10,"Cc1cc(Nc2nccc3c2nc(-c2c(Cl)cccc2Cl)n3C)ncn1 [Example 467, [2-(2,6-Dichloro-phenyl)-1-methyl-1H-imidazo[4,5-c]pyridin-4-yl]-(6-methyl-pyrimidin-4-yl)-amine]",< 5 µM
11,"Cn1c(-c2c(Cl)cccc2Cl)nc2c(Nc3ccncc3O)nccc21 [Example 468, 4-[2-(2,6-Dichloro-phenyl)-1-methyl-1H-imidazo[4,5-c]pyridin-4-ylamino]-pyridin-3-ol]",< 5 µM
12,"Cc1cc(Nc2nccc3c2nc(-c2c(Cl)cccc2Cl)n3C)sn1 [Example 469, [2-(2,6-Dichloro-phenyl)-1-methyl-1H-imidazo[4,5-c]pyridin-4-yl]-(3-methyl-isothiazol-5-yl)-amine]",< 5 µM
13,"O=Cc1cnccc1Nc1nccc2nc(-c3c(Cl)cccc3Cl)[nH]c12 [Example 470, 4-[2-(2,6-Dichloro-phenyl)-3H-imidazo[4,5-c]pyridin-4-ylamino]-pyridine-3-carbaldehyde]",< 5 µM
14,"Nc1cc(Nc2nccc3nc(-c4c(F)ccc(F)c4Cl)[nH]c23)ncn1 [Example 471, N-[2-(2-Chloro-3,6-difluoro-phenyl)-3H-imidazo[4,5-c]pyridin-4-yl]-pyrimidine-4,6-diamine]",< 5 µM
15,"Nc1cc(F)c(-c2nc3c(Nc4cc(N)ncn4)ncc(F)c3[nH]2)c(Cl)c1 [Example 472, N-[2-(4-Amino-2-chloro-6-fluoro-phenyl)-7-fluoro-1H-imidazo[4,5-c]pyridin-4-yl]-pyrimidine-4,6-diamine]",< 5 µM
